The source of these data is doi:10.1101/2022.08.20.504624 (bioRxiv, 2022).

Assay [1] concerns the target T1, Chlamydomonas IFT88, full length (Chlamydomonas reinhardtii) (UniProt Q9FPW0).
T1 sequence: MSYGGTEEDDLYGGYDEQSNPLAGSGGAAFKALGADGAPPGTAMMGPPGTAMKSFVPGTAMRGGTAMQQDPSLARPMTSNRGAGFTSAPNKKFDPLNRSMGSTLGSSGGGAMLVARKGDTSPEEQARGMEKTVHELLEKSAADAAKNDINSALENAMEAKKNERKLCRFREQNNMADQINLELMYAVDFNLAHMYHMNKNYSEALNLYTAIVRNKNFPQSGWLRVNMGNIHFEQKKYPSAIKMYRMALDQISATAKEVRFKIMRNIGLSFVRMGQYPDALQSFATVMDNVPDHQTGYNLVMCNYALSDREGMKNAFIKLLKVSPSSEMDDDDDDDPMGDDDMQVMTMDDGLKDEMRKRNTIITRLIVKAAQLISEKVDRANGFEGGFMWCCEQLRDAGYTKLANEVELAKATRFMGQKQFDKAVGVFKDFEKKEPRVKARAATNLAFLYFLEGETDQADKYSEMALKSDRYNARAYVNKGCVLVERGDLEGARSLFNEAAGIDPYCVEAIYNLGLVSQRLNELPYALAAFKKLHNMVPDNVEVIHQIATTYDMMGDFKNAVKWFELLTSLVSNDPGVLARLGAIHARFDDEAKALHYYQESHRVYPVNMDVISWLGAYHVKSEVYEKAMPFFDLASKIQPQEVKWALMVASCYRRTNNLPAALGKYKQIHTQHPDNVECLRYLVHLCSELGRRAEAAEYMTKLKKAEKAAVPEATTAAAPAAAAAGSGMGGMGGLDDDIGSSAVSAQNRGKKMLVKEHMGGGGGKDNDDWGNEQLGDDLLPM
The assay can be described thus: cross-linking.

For assay [2], the target named is Chlamydomonas IFT70 (Chlamydomonas reinhardtii). The experiment in a line: cross-linking.
Assay [3] shares this target. The experiment in a line: crystal structure.
Assay [4] addresses Chlamydomonas IFT38, full length (Chlamydomonas reinhardtii). The experiment in a line: cross-linking.

These are yes or no findings as the source states them, for the method shown. For some of these results: A result given as binding can be weak or reduced; the word gives no strength.

On to Chlamydomonas IFT38, full length, for which, in assay [1], the binding result is reported as “binds”.

B1: Chlamydomonas IFT46_(188-319) (domain or fragment, Chlamydomonas reinhardtii, UniProt A2T2X4 188-319, looked up)
chain: QLRQLSKEAPGAKADMVGRLEHTDENKAKKIQQWIASINDIHKAKPAATVNYSKRMPEIEALMQEWPPEVETFLKTMHMPSGDVELDIKTYARLVCTLLDIPVYDDPVESLHVLFTLYLEFKNNPIFRQHME
For B1, in assay [2], the binding entry is on record as “no binding”.

B2: Chlamydomonas IFT46_(165-319) (domain or fragment, UniProt A2T2X4 165-319)
chain: DYLGLKVLDEPAAKQSDPTVLTLQLRQLSKEAPGAKADMVGRLEHTDENKAKKIQQWIASINDIHKAKPAATVNYSKRMPEIEALMQEWPPEVETFLKTMHMPSGDVELDIKTYARLVCTLLDIPVYDDPVESLHVLFTLYLEFKNNPIFRQHME
On to B2, for which, in assay [3], the binding entry was “no binding”.

B3: Chlamydomonas IFT20, full length (protein, UniProt Q8LLV9 1-135)
chain: MDAVDRGVYFDEDFHVRILDVDKYNASKSLQDNTNVFINNIQNMQGLVDKYVSAIDQQVERLEAEKLKAIGLRNRVAALSEERKRKQKEQERMLAEKQEELERLQMEEQSLIKVKGEQELMIQKLSDSSSGAAYV
Take B3: the binding result in assay [4] is listed as “binds”.
